Test results taken from publication PMC9890231.
Results are given in words; binding and its absence hold for the method and conditions named. Some binding calls cover weakened binding; strength is not graded here. Blank lines part the entries; values can stand above or below the binder they belong to.

Columns and labels:
Test in all cases: tandem affinity co-purification (HisTrap, Strep-Tactin) + SEC; subunits co-overexpressed in S. cerevisiae; cleared lysate on HisTrap (Brn1-His12), eluted with imidazole; then Strep-Tactin resin (Smc4-StrepII3), eluted with desthiobiotin; then Superose 6; holo-complex and ∆Ycg1 tetramer
[1] = molecular target: T1, Brn1 (kleisin subunit of budding yeast condensin) (S. cerevisiae) (UniProt P38170)
T1 sequence: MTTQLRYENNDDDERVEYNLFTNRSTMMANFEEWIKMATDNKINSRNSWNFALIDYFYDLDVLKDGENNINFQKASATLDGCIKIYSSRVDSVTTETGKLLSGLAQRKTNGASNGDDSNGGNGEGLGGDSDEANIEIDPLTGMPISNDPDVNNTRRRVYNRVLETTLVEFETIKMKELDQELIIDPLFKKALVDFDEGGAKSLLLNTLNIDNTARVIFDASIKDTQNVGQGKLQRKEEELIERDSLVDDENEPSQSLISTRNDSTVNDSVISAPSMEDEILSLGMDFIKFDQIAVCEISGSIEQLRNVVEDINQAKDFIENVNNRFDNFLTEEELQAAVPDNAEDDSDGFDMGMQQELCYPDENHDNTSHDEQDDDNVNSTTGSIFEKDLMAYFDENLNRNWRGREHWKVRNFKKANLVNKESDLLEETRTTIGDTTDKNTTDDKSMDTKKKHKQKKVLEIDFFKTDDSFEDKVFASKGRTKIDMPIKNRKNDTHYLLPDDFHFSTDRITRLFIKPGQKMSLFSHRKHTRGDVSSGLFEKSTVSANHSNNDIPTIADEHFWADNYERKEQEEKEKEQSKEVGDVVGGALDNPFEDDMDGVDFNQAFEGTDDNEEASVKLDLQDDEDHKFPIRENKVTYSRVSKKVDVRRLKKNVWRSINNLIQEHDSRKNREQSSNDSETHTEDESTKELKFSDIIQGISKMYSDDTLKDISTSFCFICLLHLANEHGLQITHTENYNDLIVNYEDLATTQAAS

[2] = molecular target: T2, Smc4 (SMC subunit of budding yeast condensin) (S. cerevisiae) (UniProt Q12267)
T2 sequence: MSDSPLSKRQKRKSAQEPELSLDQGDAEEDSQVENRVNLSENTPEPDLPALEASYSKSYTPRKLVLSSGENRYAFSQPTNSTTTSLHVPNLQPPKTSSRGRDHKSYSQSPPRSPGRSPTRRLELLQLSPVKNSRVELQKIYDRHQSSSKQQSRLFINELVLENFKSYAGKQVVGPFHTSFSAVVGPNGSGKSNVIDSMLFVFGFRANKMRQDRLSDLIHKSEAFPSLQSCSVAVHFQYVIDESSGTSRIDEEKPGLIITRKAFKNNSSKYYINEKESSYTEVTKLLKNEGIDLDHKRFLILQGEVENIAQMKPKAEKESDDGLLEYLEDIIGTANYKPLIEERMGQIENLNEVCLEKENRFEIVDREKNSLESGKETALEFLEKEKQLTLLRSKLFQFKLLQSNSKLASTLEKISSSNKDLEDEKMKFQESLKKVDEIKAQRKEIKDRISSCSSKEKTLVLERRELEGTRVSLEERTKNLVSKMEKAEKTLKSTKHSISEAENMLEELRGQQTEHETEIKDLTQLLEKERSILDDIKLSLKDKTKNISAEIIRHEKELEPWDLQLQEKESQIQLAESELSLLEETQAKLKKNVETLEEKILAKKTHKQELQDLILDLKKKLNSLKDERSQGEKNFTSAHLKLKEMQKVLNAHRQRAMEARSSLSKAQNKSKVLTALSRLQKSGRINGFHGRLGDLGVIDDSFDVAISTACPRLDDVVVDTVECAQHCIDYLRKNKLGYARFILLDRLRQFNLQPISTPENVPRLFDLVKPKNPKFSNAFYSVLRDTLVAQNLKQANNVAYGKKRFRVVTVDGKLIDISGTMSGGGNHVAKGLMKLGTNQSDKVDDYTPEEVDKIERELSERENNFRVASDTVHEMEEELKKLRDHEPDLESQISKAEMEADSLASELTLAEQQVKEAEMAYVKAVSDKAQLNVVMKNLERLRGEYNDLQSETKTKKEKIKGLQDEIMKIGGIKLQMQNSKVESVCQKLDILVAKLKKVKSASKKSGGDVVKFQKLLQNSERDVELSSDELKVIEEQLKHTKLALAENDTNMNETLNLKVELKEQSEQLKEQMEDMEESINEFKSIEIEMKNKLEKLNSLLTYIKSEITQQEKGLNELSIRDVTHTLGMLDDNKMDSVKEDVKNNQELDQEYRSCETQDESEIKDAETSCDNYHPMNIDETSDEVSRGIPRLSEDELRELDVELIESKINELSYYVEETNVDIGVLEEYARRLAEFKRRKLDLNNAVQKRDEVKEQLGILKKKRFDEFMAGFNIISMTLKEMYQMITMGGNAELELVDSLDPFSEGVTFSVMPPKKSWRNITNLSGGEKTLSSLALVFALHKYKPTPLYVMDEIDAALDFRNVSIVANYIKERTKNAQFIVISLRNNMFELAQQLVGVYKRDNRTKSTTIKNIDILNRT

[3] = molecular target: T3, Smc4 (SMC subunit of budding yeast condensin) (S. cerevisiae), Q12267; conditions: remark: other sources report otherwise
T3 chain: T2 sequence

- binding [1]: binds
- binding [2]: binds
B1: Ycs4 (HAWK subunit of budding yeast condensin) (protein, UniProt Q06156 1-1176)
chain: MSGFSLSEYLTKFQTTDRESYPRLQDPSRELNVIIDQLAVSPEQIDASPDSLEALIDLCHDFPHLTPKLQTQLSYLISSSLSNLSKDIKANLSSNVNFTEIGGLIPQWKRHLEEYGYLIQVLLTFLQDELHKVSSQSTNLNRSAKNSKNDSANVELFKRDCNQMENLLESITKLLEINLSKIFQTTPEKDLFIGLFTRPLFVLLEIEPVTKVSSLKMFIQRILAMCVKNHGQSSSIQSSLMTNLTYFLHLSVFNAELLKLLNDEYNYPQLTEDILKEISTRVFNAKDTTGPKAISNFLIKLSELSPGIMLRQMNLVITLLNNSSITLRCSVVEACGNIVAELAQDPQTMEHYKQQIAVLIELLEERFQDSNPYVRTKAIQGCSKICDLSSKFNKSKAKFTSLAVRSLQDRSSLVRRNSVKLLSKLLLKHPFKAIHGSQLRLSEWEEYLKGSESQLNSTLKKVESQETLNDTIERSLIEEEVEQDEGQCRTELEGSFNKSAELSRIENEVENINATNTSVLMKLKLMIVYYKDAISFIKEIHKSIELISNLLFSKNRNEVLESMDFLVLADAFDIELSEFGIKKMLHLVWMKGTNDEGTSISVHLIECYKQLFLTAPDSCNMQEKAAHIAKNLINLSIGASIADLASLEQLLGMMYEQKLIDQHVINILWAIYNSASKASMQKEQNVNNRDSEKGFSKEQIHGSIIILGMLSLADNEIALKGLESLLNIGLGAVGLKDLTLCRYSCLALERMVPKRSTIITKAINQELEDVAVKKLYAIIINYTKDNEYYPMCEQALSALFTISSKPDILATDLIREKTMMTFGKPEEEDSILSLEQSSRVVSLSQLLFIVGQVAIKTLVYLEKCEAEFKKRKIEAETRNGKVKNQGADVTNTTQDNGGDKELEMIGGTNEDDFTDAIQFVKENELLFGEKSILGKFCPIVEEIVSNSSRFSDPMLQRTATLCLEKLMCLSSKYCEKSLPLLITVMEKSPDPTIRSNAVLGLGDMAVCFNNLVDENTDYLYRRLHDENLMVQRTCLMTVTFLILAGQVKVKGQLGEMAKCLDNPDQGISDMCRLFFTELASKDNAIYNGFIDIFSNLSSDDLLGKESFKKIIKFLLTFIDKERHQKQLNEKLVGRLRKCETQKQWDDIAFVLNNLPYKNEDVTALLEQGFKVVSAKE

- binding [3]: binds
B2: Ycg1 (HAWK subunit of budding yeast condensin), Q06680 1-1035 (protein)
chain: MQDPDGIDINTKIFNSVAEVFQKAQGSYAGHRKHIAVLKKIQSKAVEQGYEDAFNFWFDKLVTKILPLKKNEIIGDRIVKLVAAFIASLERELILAKKQNYKLTNDEEGIFSRFVDQFIRHVLRGVESPDKNVRFRVLQLLAVIMDNIGEIDESLFNLLILSLNKRIYDREPTVRIQAVFCLTKFQDEEQTEHLTELSDNEENFEATRTLVASIQNDPSAEVRRAAMLNLINDNNTRPYILERARDVNIVNRRLVYSRILKSMGRKCFDDIEPHIFDQLIEWGLEDRELSVRNACKRLIAHDWLNALDGDLIELLEKLDVSRSSVCVKAIEALFQSRPDILSKIKFPESIWKDFTVEIAFLFRAIYLYCLDNNITEMLEENFPEASKLSEHLNHYILLRYHHNDISNDSQSHFDYNTLEFIIEQLSIAAERYDYSDEVGRRSMLTVVRNMLALTTLSEPLIKIGIRVMKSLSINEKDFVTMAIEIINDIRDDDIEKQEQEEKIKSKKINRRNETSVDEEDENGTHNDEVNEDEEDDNISSFHSAVENLVQGNGNVSESDIINNLPPEKEASSATIVLCLTRSSYMLELVNTPLTENILIASLMDTLITPAVRNTAPNIRELGVKNLGLCCLLDVKLAIDNMYILGMCVSKGNASLKYIALQVIVDIFSVHGNTVVDGEGKVDSISLHKIFYKVLKNNGLPECQVIAAEGLCKLFLADVFTDDDLFETLVLSYFSPINSSNEALVQAFAFCIPVYCFSHPAHQQRMSRTAADILLRLCVLWDDLQSSVIPEVDREAMLKPNIIFQQLLFWTDPRNLVNQTGSTKKDTVQLTFLIDVLKIYAQIEKKEIKKMIITNINAIFLSSEQDYSTLKELLEYSDDIAENDNLDNVSKNALDKLRNNLNSLIEEINERSETQTKDENNTANDQYSSILGNSFNKSSNDTIEHAADITDGNNTELTKTTVNISAVDNTTEQSNSRKRTRSEAEQIDTSKNLENMSIQDTSTVAKNVSFVLPDEKSDAMSIDEEDKDSESFSEVC

- binding [1]: binds
- binding [2]: binds
B3: Smc2 (SMC subunit of budding yeast condensin) (protein, UniProt P38989 1-1170)
chain: MKVEELIIDGFKSYATRTVITDWDPQFNAITGLNGSGKSNILDAICFVLGIASMSTVRASSLQDLIYKRGQAGVTKASVTIVFDNTDKSNSPIGFTNSPQISVTRQVVLGGTSKYLINGHRAPQQSVLQLFQSVQLNINNPNFLIMQGKITKVLNMKPSEILSLIEEAAGTKMFEDRREKAERTMSKKETKLQENRTLLTEEIEPKLEKLRNEKRMFLEFQSTQTDLEKTERIVVSYEYYNIKHKHTSIRETLENGETRMKMLNEFVKKTSEEIDSLNEDVEEIKLQKEKELHKEGTISKLENKENGLLNEISRLKTSLSIKVENLNDTTEKSKALESEIASSSAKLIEKKSAYANTEKDYKMVQEQLSKQRDLYKRKEELVSTLTTGISSTGAADGGYNAQLAKAKTELNEVSLAIKKSSMKMELLKKELLTIEPKLKEATKDNELNVKHVKQCQETCDKLRARLVEYGFDPSRIKDLKQREDKLKSHYYQTCKNSEYLKRRVTNLEFNYTKPYPNFEASFVHGVVGQLFQIDNDNIRYATALQTCAGGRLFNVVVQDSQTATQLLERGRLRKRVTIIPLDKIYTRPISSQVLDLAKKIAPGKVELAINLIRFDESITKAMEFIFGNSLICEDPETAKKITFHPKIRARSITLQGDVYDPEGTLSGGSRNTSESLLVDIQKYNQIQKQIETIQADLNHVTEELQTQYATSQKTKTIQSDLNLSLHKLDLAKRNLDANPSSQIIARNEEILRDIGECENEIKTKQMSLKKCQEEVSTIEKDMKEYDSDKGSKLNELKKELKLLAKELEEQESESERKYDLFQNLELETEQLSSELDSNKTLLHNHLKSIESLKLENSDLEGKIRGVEDDLVTVQTELNEEKKRLMDIDDELNELETLIKKKQDEKKSSELELQKLVHDLNKYKSNTNNMEKIIEDLRQKHEFLEDFDLVRNIVKQNEGIDLDTYRERSKQLNEKFQELRKKVNPNIMNMIENVEKKEAALKTMIKTIEKDKMKIQETISKLNEYKRETLVKTWEKVTLDFGNIFADLLPNSFAKLVPCEGKDVTQGLEVKVKLGNIWKESLIELSGGQRSLIALSLIMALLQFRPAPMYILDEVDAALDLSHTQNIGHLIKTRFKGSQFIVVSLKEGMFANANRVFRTRFQDGTSVVSIM
